In paper PMC8415707 (Frontiers in Pharmacology, 2021):
These are yes or no findings as the source states them, for the method shown. Some entries that bind do so weakly or less than the wild type.

Chains of the proteins cited; added tags and fusions are not shown. Residues count along the entry.
UniProt P02769, residues 25-607: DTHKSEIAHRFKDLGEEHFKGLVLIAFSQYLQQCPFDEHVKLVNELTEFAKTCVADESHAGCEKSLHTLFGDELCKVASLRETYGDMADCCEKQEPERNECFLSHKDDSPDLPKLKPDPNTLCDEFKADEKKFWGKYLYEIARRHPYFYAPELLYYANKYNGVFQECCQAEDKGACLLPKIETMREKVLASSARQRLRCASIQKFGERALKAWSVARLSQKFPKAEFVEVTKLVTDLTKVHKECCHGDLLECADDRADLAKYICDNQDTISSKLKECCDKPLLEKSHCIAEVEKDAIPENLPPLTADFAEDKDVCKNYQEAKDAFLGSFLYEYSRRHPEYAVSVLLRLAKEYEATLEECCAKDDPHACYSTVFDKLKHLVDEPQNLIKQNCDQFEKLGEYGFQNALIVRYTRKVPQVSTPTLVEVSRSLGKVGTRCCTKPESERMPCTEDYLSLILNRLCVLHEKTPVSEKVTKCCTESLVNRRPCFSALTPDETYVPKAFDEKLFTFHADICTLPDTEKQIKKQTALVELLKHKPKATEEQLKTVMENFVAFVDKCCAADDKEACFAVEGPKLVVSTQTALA
UniProt P20231, residues 31-275: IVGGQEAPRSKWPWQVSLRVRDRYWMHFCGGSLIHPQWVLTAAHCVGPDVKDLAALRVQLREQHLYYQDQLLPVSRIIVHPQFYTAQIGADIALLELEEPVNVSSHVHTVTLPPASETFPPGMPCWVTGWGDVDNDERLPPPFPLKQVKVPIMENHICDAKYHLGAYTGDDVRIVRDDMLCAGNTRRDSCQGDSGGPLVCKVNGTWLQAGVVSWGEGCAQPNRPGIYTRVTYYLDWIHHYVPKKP

Target: T1, FM-CATH (F. multistriata)
T1 sequence (peptide): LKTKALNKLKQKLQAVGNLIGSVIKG
Test: SPR; SPRi (PlexArray HT A100, bare gold chip); FM-CATH (2 mM) and BSA in PBS spotted on the chip, blocked with 1 M ethanolamine pH 8.5; different concentrations of proteases flowed over at 2 uL/s; regeneration with 0.5% H3PO4; both purified

Substance: BSA (from UniProt P02769 25-607)
- binding: no binding

Substance: β-tryptase (from UniProt P20231 31-275) (enzyme)
- binding: binds
